According to article PMC5399837:
No constants are given. Whether binding was seen depends on the method and setting. In cells and extracts the contact can be indirect. These calls come from enrichment with a bait or labelling near it, and not all partners need be listed. No binding means not detected with the bait.

T1: Fimbrial protein; PilS cassette (Neisseria meningitidis (endogenous in strain MC58)) (UniProt P05431)
T1 sequence: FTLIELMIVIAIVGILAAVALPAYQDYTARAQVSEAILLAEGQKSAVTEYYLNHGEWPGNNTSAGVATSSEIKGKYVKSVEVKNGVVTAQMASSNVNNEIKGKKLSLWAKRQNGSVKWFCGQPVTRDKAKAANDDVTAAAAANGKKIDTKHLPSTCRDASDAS

T2: Pilus assembly protein PilG (Neisseria meningitidis (endogenous in strain MC58)) (UniProt Q7DDR1)
T2 sequence: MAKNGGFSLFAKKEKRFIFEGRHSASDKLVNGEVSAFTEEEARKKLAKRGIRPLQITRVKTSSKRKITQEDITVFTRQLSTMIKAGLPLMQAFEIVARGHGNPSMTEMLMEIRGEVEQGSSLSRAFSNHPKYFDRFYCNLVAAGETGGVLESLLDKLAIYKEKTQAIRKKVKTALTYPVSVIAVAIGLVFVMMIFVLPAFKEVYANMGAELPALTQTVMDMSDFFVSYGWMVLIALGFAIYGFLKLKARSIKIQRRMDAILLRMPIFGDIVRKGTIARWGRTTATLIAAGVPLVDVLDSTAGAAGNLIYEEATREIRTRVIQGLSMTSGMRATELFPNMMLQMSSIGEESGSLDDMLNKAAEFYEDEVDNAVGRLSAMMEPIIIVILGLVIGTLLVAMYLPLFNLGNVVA


Legend:
[1] = biological target: T1, Fimbrial protein; PilS cassette (Neisseria meningitidis (endogenous in strain MC58)); assay: affinity purification with mass spectrometry; Co-IP with rabbit polyclonal antibody raised against purified Tfp (PilE), Dynabeads Co-Immunoprecipitation Kit, Nm MC58 wildtype lysate; eluate digested in solution with trypsin, LC-MS/MS
[2] = biological target: DNA processing chain A (Neisseria meningitidis (endogenous in strain MC58)) (UniProt Q9K1K1); assay: affinity purification with mass spectrometry; Dynabeads coupled to rabbit polyclonal anti-DprA antibody, incubated with Nm MC58 wildtype lysate (100 mM NaCl, 2 mM MgCl, 1 mM DTT, 1% DDM) at 4 °C for 1.5 h; eluate digested in solution with trypsin, LC-MS/MS; ΔdprA lysate as control
[3] = biological target: T2, Pilus assembly protein PilG (Neisseria meningitidis (endogenous in strain MC58)); assay: affinity purification with mass spectrometry; Dynabeads coupled to rabbit polyclonal anti-PilG antibody, incubated with Nm MC58 wildtype lysate (100 mM NaCl, 2 mM MgCl, 1 mM DTT, 1% DDM) at 4 °C for 1.5 h; eluate digested in solution with trypsin, LC-MS/MS; ΔpilG lysate as control

Row | Binder | binding [1] | binding [2] | binding [3]
1 | Septum site-determining protein MinD (protein, UniProt Q7DDS7 1-271) MAKIIVVTSGKGGVGKTTTSASIATGLALRGYKTAVIDFDVGLRNLDLIMGCERRVVYDLINVIQGEATLNQALIKDKNCENLFILPASQTRDKDALTREGVEKVMQELSGKKMGFEYIICDSPAGIEQGALMALYFADEAIVTTNPEVSSVRDSDRILGILQSKSHKAEQGGSVKEHLLITRYSPERVAKGEMLSVQDICDILHIPLLGVIPESQNVLQASNSGEPVIHQDSVAASEAYKDVIARLLGENREMRFLEAEKKSFFKRLFGG | no binding | binds | no binding
2 | Probable malate:quinone oxidoreductase (enzyme, UniProt Q9JXD7 1-488) MAEATDVVLVGGGIMSATLGVLLKELEPSWEITLIERLEDVALESSNAWNNAGTGHSALCELNYAPLGANGIIDPARALNIAEQFHVSRQFWATLVAEGKLEDNSFINAVPHMSLVMNEDHCSYLQKRYDAFKTQKLFENMEFSTDRNKISDWAPLMMRGRDENQPVAANYSAEGTDVDFGRLTRQMVKYLQGKGVKTEFNRHVEDIKRESDGAWVLKTADTRNPDGQLTLRTRFLFLGAGGGALTLLQKSGIPEGKGYGGFPVSGLFFRNSNPETAEQHNAKVYGQASVGAPPMSVPHLDTRNVDGKRHLMFGPYAGFRSNFLKQGSLMDLPLSIHMDNLYPMLCAGWANMPLTKYLLGELRKTKEERFASLLEYYPEANPDDWELITAGQRVQIIKKDSEKGGVLQFGTEIVAHADGSLAALLGASPGASTAVPLMIRLMHQCFPERAPSWEDRLKELVPGYGIKLNENPERADEIIAYTAKVLDI | no binding | binds | no binding
3 | PilO protein (protein, UniProt Q7DD78 1-215) MASKSSKTNLDLNNLHLLNLPARLFIALLAVAAVLGLGYAGLFKSQMESLEEYEAKETELKNTYKQKSIDAASLNNLRDELASIRSAFDIMLKQLPTDAEIPNLVQELHQAGSSNGLRLDSVMPQPPVDDGPIKRLPYSISITGNYEQISQFTRDVGSLSRIITLESLKIAQSPENGGNPDGKSSILNLSAIATTYQAKSVEELAAEAAQNAEQK | no binding | no binding | no binding
4 | PilM protein (protein, UniProt Q9JY02 1-371) MRLFKSLKNPKKTDAKLPKKSSGLNNRAAIGIDIDQHSIKMVQLSGRSLNQIQLEKYVIAKLPKNIIQGNKVQNYDQLVTYLQQAYAKLGTSCKNIIASVPQNLATIEQLTYTDKDAELDLQGFVESSISEVSSISLEEANYDYQVLSQSAAGEAVLAVASRKDEIEPLIDAFNAAGMKLSALDVDIFGQYNAYALWINHFAPELAAEKVAIFGVYAAQTYALVIQDGKILYKQETSVSEEQLNQLIQRTYQVTEEKAEEIINSPQKPSDYQESVANYFNQQITQEIQRVLQFYYTTQTADDMTDIKHILLTGEAARQEGIAQTVASQTNADVQCVHPARYFADNLKTDKQQFELDAPTLTRAFGLAVRGL | no binding | no binding | no binding
5 | Glutaredoxin (protein, UniProt Q7DDL4 1-103) MASIHDQIKEVVTTHRVVLFMKGTKQFPQCGFSSRAVQILNAAGCTDYVTVNVLENPEVRQGIKEYSDWPTIPQLYVNGEFVGGSDILMEMYEAGELQELLKA | no binding | no binding | no binding
